The target in this test is TXNDC12, bait of the Co-IP coupled with mass spectrometry (UniProt O95881). The test is described as follows: affinity purification with mass spectrometry; Co-IP of TXNDC12; interacting proteins separated on SDS-polyacrylamide gels, selected bands excised, digested with trypsin, tandem mass spectrometry.

Sequences of proteins named here, by UniProt entry; tags and fusion partners are left off. Residues count along the entry.
UniProt O95881, residues 27-172: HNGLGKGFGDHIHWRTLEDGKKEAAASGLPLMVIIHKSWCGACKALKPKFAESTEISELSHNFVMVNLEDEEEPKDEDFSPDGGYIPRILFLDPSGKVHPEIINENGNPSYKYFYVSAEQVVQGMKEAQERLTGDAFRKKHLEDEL
UniProt P45974: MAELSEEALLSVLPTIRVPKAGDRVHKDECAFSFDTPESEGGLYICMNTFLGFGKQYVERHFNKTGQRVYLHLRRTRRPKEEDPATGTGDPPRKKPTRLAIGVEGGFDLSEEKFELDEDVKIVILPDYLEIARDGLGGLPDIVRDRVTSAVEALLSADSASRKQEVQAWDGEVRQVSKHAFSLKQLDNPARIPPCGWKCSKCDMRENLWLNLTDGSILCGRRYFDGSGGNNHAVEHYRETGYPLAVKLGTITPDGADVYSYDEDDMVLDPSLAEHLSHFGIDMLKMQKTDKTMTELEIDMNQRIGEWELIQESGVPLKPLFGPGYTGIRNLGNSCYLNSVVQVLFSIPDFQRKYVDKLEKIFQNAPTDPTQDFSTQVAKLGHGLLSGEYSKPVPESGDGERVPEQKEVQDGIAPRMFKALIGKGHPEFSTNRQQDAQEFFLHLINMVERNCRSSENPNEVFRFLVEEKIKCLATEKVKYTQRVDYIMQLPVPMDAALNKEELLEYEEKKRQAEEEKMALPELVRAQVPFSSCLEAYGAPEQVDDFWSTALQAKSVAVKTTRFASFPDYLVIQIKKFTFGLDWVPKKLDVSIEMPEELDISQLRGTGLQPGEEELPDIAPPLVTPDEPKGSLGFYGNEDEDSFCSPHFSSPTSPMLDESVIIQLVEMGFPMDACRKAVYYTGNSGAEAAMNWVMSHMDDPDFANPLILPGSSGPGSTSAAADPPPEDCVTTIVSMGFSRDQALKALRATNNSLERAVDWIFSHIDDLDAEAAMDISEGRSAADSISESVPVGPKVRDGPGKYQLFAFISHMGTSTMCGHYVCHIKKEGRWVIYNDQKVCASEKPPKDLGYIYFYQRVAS

These are yes or no findings as the source states them, for the method shown. Binding seen in cells or lysates may run through a third protein. A yes stands for co-enrichment or nearness to the bait. Other partners may have been found.

Consider “USP5, identified by mass spectrometry in the TXNDC12 co-immunoprecipitate (from UniProt P45974 1-858) (enzyme)”, for which the binding result is on record as “binds”.

These data come from article PMC12411639.
